These are yes or no findings as the source states them, for the method shown. In cells and extracts the contact can be indirect. Some entries that bind do so weakly or less than the wild type.
Experiments:
[1] = target: β-catenin (human (endogenous in SW480 and SW620)) (UniProt P35222); test: co-IP; endogenous proteins; 2 μg anti-SOX2 or anti-β-catenin antibody added to 1 mg protein lysate (cytoplasmic and nuclear fractions of SW480 and SW620 cells), overnight at 4 °C; protein A/G beads; non-specific IgG as negative control; Western blot
[2] = target: Sex-determining region Y-box2 (SOX2) (human (endogenous in SW480 and SW620)) (UniProt P48431); test: as above

The chains behind the UniProt entries cited, without tags or fusion partners.
UniProt P35222: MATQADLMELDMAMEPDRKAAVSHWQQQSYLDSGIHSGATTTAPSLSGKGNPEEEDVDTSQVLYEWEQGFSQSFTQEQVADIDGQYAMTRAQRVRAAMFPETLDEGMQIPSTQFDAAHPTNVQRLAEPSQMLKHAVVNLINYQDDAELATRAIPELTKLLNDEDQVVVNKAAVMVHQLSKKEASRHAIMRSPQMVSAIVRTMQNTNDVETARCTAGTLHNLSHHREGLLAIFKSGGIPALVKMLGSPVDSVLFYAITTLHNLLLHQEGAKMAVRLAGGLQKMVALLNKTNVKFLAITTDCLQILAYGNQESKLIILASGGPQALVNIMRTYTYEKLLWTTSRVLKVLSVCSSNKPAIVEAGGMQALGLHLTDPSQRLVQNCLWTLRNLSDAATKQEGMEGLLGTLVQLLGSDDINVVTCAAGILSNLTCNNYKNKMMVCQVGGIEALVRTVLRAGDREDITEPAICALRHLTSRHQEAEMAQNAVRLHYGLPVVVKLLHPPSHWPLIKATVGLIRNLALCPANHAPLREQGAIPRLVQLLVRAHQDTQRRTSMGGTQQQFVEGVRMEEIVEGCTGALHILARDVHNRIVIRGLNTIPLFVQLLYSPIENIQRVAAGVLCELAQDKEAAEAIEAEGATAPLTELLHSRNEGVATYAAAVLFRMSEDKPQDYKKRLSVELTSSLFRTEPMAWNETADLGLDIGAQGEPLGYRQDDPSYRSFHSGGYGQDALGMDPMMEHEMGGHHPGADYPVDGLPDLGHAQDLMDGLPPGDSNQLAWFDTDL
UniProt P48431: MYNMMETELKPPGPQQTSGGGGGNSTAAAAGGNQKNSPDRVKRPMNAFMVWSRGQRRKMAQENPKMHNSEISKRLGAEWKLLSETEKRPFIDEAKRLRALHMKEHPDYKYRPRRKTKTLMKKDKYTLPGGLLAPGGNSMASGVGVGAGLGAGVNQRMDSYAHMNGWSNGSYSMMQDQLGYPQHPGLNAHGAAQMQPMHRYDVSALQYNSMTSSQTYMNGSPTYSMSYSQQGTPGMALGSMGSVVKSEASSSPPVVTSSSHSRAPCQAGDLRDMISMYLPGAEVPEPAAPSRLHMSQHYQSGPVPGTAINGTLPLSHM

Sex-determining region Y-box2 (SOX2) (from UniProt P48431 1-317)
binding [1]: binds

β-catenin (from UniProt P35222 1-781)
binding [2]: binds

Source: paper PMC8100126
